# Screening data, single-dose tests

Data taken from ChEMBL document CHEMBL3988442, “University of Dundee, Small-Polar-MMV Screening Library” (2021).

Mtb cholesterol medium: 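Whole-cell growth test on Mycobacterium tuberculosis, read after 4 days in a medium based on cholesterol and the lipid DPPC; the read-out is not stated. Tested at 500 µM. The record gives no direction; compounds that gave an IC50 in retests scored well above the rest, so higher reads as more growth inhibition. Size under these conditions: about 18,000 compounds, about 900 of them at 50% or above in at least one test.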
Mtb glucose medium: 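Whole-cell growth test on Mycobacterium tuberculosis, read after 3 days in glucose-containing 7H9 medium; the read-out is not stated. Tested at 500 µM. Direction is inferred from retests: higher values go with more growth inhibition. About 18,000 compounds were tested under these conditions; 7.9% (about 1,400) showed 50% or more at least once.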

Results are given as percent effect. The record does not define 0% and 100%; most values in the screen are far below 50% and negative numbers occur (in some assays of this library far below -100). The compounds are a random part of those screened.

Compound	Mtb cholesterol medium	Mtb glucose medium
Cn1c(=O)[nH]c2cc(C(=O)N3CCCCCC3)ccc21	11.04	23.22
CNCc1ncon1	3.204	2.819
COC(=O)COC(C)(C)C	-14.26	-5.255
CCNC(=O)CNC(=O)C(C)(O)CCc1ccccc1 (configuration not stated)	49.25	28.73
CSc1ccc(OCCN(C)CC(N)=O)cc1	29.48	49.48
CCN(CC(=O)NCc1ncccc1F)C1CC1	6.884	8.2
Cc1ccc(C)c(NC(=O)CN2CCNC(=O)C2)c1	0.6146	9.086
NC(=O)C1CCN(Cc2ccc(Br)c3cccnc23)C1 (configuration not stated)	-11.94	17.31
CN(C)c1ccc(CNC(=O)C2CCCO2)cc1 (configuration not stated)	55.07	50.31
CC(C)[C@]1(O)CN(Cc2c[nH]cn2)C[C@H]1C	-13.5	18.59
CC(=O)N1CC(NC(=O)c2cc(C)cc(Br)c2)C1	-0.2082	4.072
COc1cc(C)cc(OC)c1O	1.579	13.03
O=C(NCc1ccoc1)NCC(O)c1cccc(F)c1 (configuration not stated)	-3.884	-9.222
CN(C)C(=O)CCCNc1cc([C@H]2C[C@@H](N)C2)ncn1	-8.263	-1.002
COCCCNCc1ccc2c(c1)OCCO2	5.203	-1.157
Cc1cccc(C)c1NC(=O)NC(C)(CO)CO	-1.666	6.161
CC1(C)CCNCC[S+]1[O-] (configuration not stated)	-18.72	-6.403
CC(=O)N1CC(NC(=O)c2cccc(Br)c2Cl)C1	10.93	4.134
Cc1nc[nH]c1CN(C)CC(C)N1CCOCC1 (configuration not stated)	2.868	8.037
CN(CCNC(=O)C[C@@H]1C[C@@H]2C=C[C@H]1C2)S(C)(=O)=O	-9.576	13.51
CN1CCC(NC(=O)c2ccc3ncccc3c2)C1=O (configuration not stated)	-2.174	2.261
CN(CC(N)=O)C(=O)c1cnn(-c2ccccc2)n1	-0.6929	21.4
O=C(Nc1cnccn1)c1ccc(F)cn1	-8.105	-6.442
CC(C)C(N)c1nc(-c2ccncc2)no1 (configuration not stated)	13.33	34.63
CN(CCc1cnn(C)c1)C(=O)c1c[nH]c(=O)[nH]1	-0.347	6.215
CC1CCN(C(=O)COc2ncccn2)CC1	26.82	42.27
CCN1CCCC1CNC(=O)NCCN1CCOCC1 (configuration not stated)	-15.78	-3.233
Cc1cccc(C(=O)NCC(O)c2cccnc2)n1 (configuration not stated)	-6.701	4.267
COc1cccc(CNC(=O)NCC(C)(C)C(N)=O)c1	-20.52	0.2151
CCN(CC)CCNC(=O)C1CCCO1 (configuration not stated)	2.498	6.107
CCN1CC(C(=O)N2CCc3ccccc3C2)CC1=O (configuration not stated)	-5.299	12.39
CC(CCO)NCc1ccccc1 (configuration not stated)	-1.712	-0.4929
CS(=O)(=O)Nc1cccc(C(=O)Nc2ccccc2)c1	37.42	59.56
O=C(c1cccc2cc[nH]c12)N1CCSCC1	6.704	53.06
CCC1C(=O)NCCN1C(=O)Nc1cccc(C)n1 (configuration not stated)	4.032	18.34
COCC(=O)N1CCCN(Cc2cnn(C)c2)CC1	0.1408	0.9726
Cc1ccc(S(C)(=O)=O)cc1NC(=O)C1CCC1	1.158	-1.538
CC(C)(CNC(=O)COC1CCCCC1)C(N)=O	3.985	11.57
Cn1ccnc1CN1CCCCC1CN1CCOCC1 (configuration not stated)	4.717	2.077
Nc1cc(CO)ccn1	-7.226	-0.1756
CCCC(C)NC(=O)COc1ccccc1C(N)=O (configuration not stated)	-0.6856	31.84
Cc1c[nH]c(CN(C)Cc2ccc(S(C)(=O)=O)cc2)n1	5.474	3.968
CCN(C(=O)CCc1cccnc1)[C@H]1COC[C@@H]1O	-9.878	-27.32
N#CC(c1cccc(Cl)c1)N1CCNCC1 (configuration not stated)	-4.712	4.006
O=C1C[C@H]2CC[C@@H](CN1)N2Cc1ccc(CO)o1	-2.774	8.058
CC(C)C(=O)N1CCCC(c2nccn2CC(N)=O)C1 (configuration not stated)	-17.17	-2.696
COC(C)C(=O)NCc1ccc(C(C)=O)c(C)n1 (configuration not stated)	-10.11	-10.47
Cc1cccc(C2CCCN2)n1 (configuration not stated)	-11.3	-3.301
CCc1nc(CCN)cs1	79.77	82.58
Cc1cc(NC(=O)c2ccc(F)c(C)c2)nc(=O)[nH]1	-9.887	-0.9317
CC(C)C1c2nccn2CCCN1C(=O)c1cnco1 (configuration not stated)	-12.05	2.747
CCc1noc(C(C)NC(=O)c2cccnc2C)n1 (configuration not stated)	9.988	16.09
O=C(CSCCN1CCCCC1)Nc1ccccn1	-6.216	-4.192
CCC(=O)N1CCN(C(=O)c2ccc(Br)cc2)CC1	25.4	35.98
O=C(NCc1ccnc(N2CCCC2)c1)c1ccsc1	107.4	95.73
Cc1ccoc1C(=O)N(C)C1CCN(C)CC1	10.52	9.009
CN(C)C[C@@H]1CN(C(=O)c2ccccc2Cl)C[C@@H]1CO	-10.79	4.927
CC(C)N1CCC2(CC1)Nc1ccccc1NC2=O	4.239	14.59
CC(=O)c1cccc(OCC(=O)Nc2cnn(C)c2)c1	7.77	7.795
CNCCC1CCCO1 (configuration not stated)	12.02	5.615
COc1ccc(-c2noc(C(C)n3ccnc3)n2)cn1 (configuration not stated)	82.82	63.18
O=C(NCCn1ccnn1)c1c(O)cccc1F	3.025	0.5577
CNC(=O)NC(=O)CSc1nc(C)c(C)c(C)c1C#N	-19.76	-1.377
CNc1snc(C)c1C(=O)NCc1ncoc1C	-4.735	9.424
NC(=O)CCN1C(=O)c2ccccc2S1(=O)=O	-19.36	-3.502
Cc1cc(N2CCCN(CC3CCNC3)CC2)ccn1 (configuration not stated)	1.374	-5.679
CN(C)c1ccc(C(=O)N(C)C2(C#N)CCC2)cc1F	16.41	80.32
CC(CC(N)=O)C(=O)NCCCc1ccc(Br)cc1F (configuration not stated)	-8.962	0.4974
O=C1CC(O)C(=O)N1C1CCCCC1 (configuration not stated)	-1.23	3.426
OC1CCCN(Cc2nc3ccccc3o2)C1 (configuration not stated)	-16.02	18.06
CCc1nnc(CN(CC)C(=O)Nc2cnns2)o1	-19.41	-15.95

Repeated from the top, 4 entries:

* Cn1c(=O)[nH]c2cc(C(=O)N3CCCCCC3)ccc21 : Mtb cholesterol medium: 11.04%; Mtb glucose medium: 23.22%
* CNCc1ncon1 : Mtb cholesterol medium: 3.204%; Mtb glucose medium: 2.819%
* COC(=O)COC(C)(C)C : Mtb cholesterol medium: -14.26%; Mtb glucose medium: -5.255%
* CCNC(=O)CNC(=O)C(C)(O)CCc1ccccc1 (configuration not stated) : Mtb cholesterol medium: 49.25%; Mtb glucose medium: 28.73%